Measured values as given in patent publication US7585875B2, “Substituted pyrazolo[1,5-a]pyridine compounds and their methods of use” (Avigen, Inc., priority 2006, dated 2009).
pIC50: −log10 of the molar value. Some entries share one result that the patent states for a list of compounds.

What follows are compounds tested against phosphodiesterase (PDE) enzyme derived from bovine brain (assay: Inhibition of PDE (PDELight kit, cAMP substrate)). Conditions: less than about 50 μM; read-out: PDE IC50 (text statement, preferred compounds out of those evaluated).
Format: biochemical
Method: In a 96-well plate, phosphodiesterase (PDE) enzyme (0.5-1 mU/well) derived from bovine brain (Sigma) was combined with 5 uM cAMP substrate (Sigma). Test compounds (0-200 uM) or vehicle (0.5% DMSO) were added to the enzyme/substrate and incubated for 1 hour. Using a PDELight® kit (Cambrex), the amount of AMP produced in the reaction from the hydrolysis of cAMP was quantified using PDELight AMP Detection Reagent which converts the AMP directly to ATP. The assay uses luciferase, which catalyses the formation of light from the newly formed ATP and luciferin. The luminescence was read on a Victor Light 1420 luminometer. IC50 calculations were plotted using a nonlinear regression curve fit.

SMILES | pIC50
COc1ccc(C(=O)c2c(C(C)C)nn3ccccc23)cc1 [Compound 1008, (2-isopropylpyrazolo[1,5-a]pyridin-3-yl)(4-methoxyphenyl)methanone] | > 4.30
CC(C)C(=NO)c1c(C(C)C)nn2ccccc12 [Compound 1012, 1-(2-isopropylpyrazolo[1,5-a]pyridin-3-yl)-2-methylpropan-1-one oxime] | > 4.30
COc1ccc(-c2nn3ccccc3c2C(=NO)C(C)C)cc1 [Compound 1022, 1-(2-(4-methoxyphenyl)pyrazolo[1,5-a]pyridin-3-yl)-2-methylpropan-1-one oxime] | > 4.30
CC(C)C(=O)c1c(-c2ccc(Cl)cc2)nn2ccccc12 [Compound 1024, 1-(2-(4-chlorophenyl)pyrazolo[1,5-a]pyridin-3-yl)-2-methylpropan-1-one] | > 4.30
CC(C)C(=NO)c1c(-c2ccc(Cl)cc2)nn2ccccc12 [Compound 1025, 1-(2-(4-chlorophenyl)pyrazolo[1,5-a]pyridin-3-yl)-2-methylpropan-1-one oxime] | > 4.30
CC(C)C(=NOC(N)=O)c1c(-c2ccc(Cl)cc2)nn2ccccc12 [Compound 1026, 1-(2-(4-chlorophenyl)pyrazolo[1,5-a]pyridin-3-yl)-2-methylpropan-1-one O-carbamoyl oxime] | > 4.30
CC(C)c1nn2ccccc2c1C(=O)C(C)(C)O [compound 1004, 2-hydroxy-1-(2-isopropylpyrazolo[1,5-a]pyridin-3-yl)-2-methylpropan-1-one] | > 4.30
CC(C)C(=O)c1c(C(C)C)nn2cc(O)ccc12 [compound 1006, 1-(6-hydroxy-2-isopropylpyrazolo[1,5-a]pyridin-3-yl)-2-methylpropan-1-one] | > 4.30
CC(C)C(=NO)c1c(-c2ccc(F)cc2)nn2ccccc12 [compound 1019, 1-(2-(4-fluorophenyl)pyrazolo[1,5-a]pyridin-3-yl)-2-methylpropan-1-one oxime] | > 4.30

Each compound was assayed on mechanical allodynia after chronic constriction injury (CCI) to the sciatic nerve (assay: Mechanical allodynia by response to von Frey fibers, rat chronic constriction injury (CCI) model). Conditions: compounds listed as particularly advantageous.
Format: in vivo, male Sprague-Dawley rats
Source text: Chronic Constriction Injury: Heat and cold allodynia responses as well as mechanical allodynia sensations can be evaluated as described below in rats having a chronic constriction injury (CCI). A unilateral mononeuropathy is produced in rats using the chronic constriction injury model described in Bennett et al., Pain (1988) 33:87-107. CCI is produced in anesthetized rats as follows. The lateral aspect of each rat's hind limb is shaved and scrubbed with Nolvasan. Using aseptic techniques, an incision is made on the lateral aspect of the hind limb at the mid-thigh level. The biceps femoris is bluntly dissected to expose the sciatic nerve. On the right hind limb of each rat, four loosely tied ligatures (for example, Chromic gut 4.0; Ethicon, Johnson and Johnson, Somerville, N.J.) are made around the sciatic nerve approximately 1-2 mm apart. On the left side of each rat, an identical dissection is performed except that the sciatic nerve is not ligated (sham). The muscle is closed with a continuous suture pattern with, e.g., 4-0 Vicryl (Johnson and Johnson, Somerville, N.J.) and the overlying skin is closed with wound clips. The rats are ear-tagged for identification purposes and returned to animal housing.
To induce allodynia, male Sprague-Dawley rats underwent chronic constriction injury (CCI) to the sciatic nerve as described by Bennett and Xie, Pain 1988; 33(1):87-107. The plantar surface of the hind paws was stimulated with von Frey filaments (Stoelting) to induce a withdrawal response by blinded personnel. The bending force of fiber required to induce a 50% withdrawal response was calculated following CCI surgery (pre-dosing baseline). N=5-6 allodynic rats received a single intraperitoneal administration of test compound or vehicle. Two hours post-dosing, 50% paw withdrawal threshold was determined again by blinded testers using von Frey filaments. The change in 50% withdrawal threshold relative to pre-dosing baseline is reported in Table 2 for various substituted pyrazolo[1,5-a]pyridine compounds of the invention.

SMILES | chronic constriction injury threshold
CC(C)c1nn2ccccc2c1C(=O)CN [Compound 1009, 2-amino-1-(2-isopropylpyrazolo[1,5-a]pyridin-3-yl)ethanone] | ≥ 1.0 gram
CC(C)C(=NO)c1c(C(C)C)nn2ccccc12 [Compound 1012, 1-(2-isopropylpyrazolo[1,5-a]pyridin-3-yl)-2-methylpropan-1-one oxime] | ≥ 1.0 gram
CC(C)C(=NOC(N)=O)c1c(-c2ccccc2)nn2ccccc12 [Compound 1017, 2-methyl-1-(2-phenylpyrazolo[1,5-a]pyridin-3-yl)propan-1-one O-carbamoyl oxime] | ≥ 1.0 gram
CC(C)C(=NOC(N)=O)c1c(-c2ccc(Cl)cc2)nn2ccccc12 [Compound 1026, 1-(2-(4-chlorophenyl)pyrazolo[1,5-a]pyridin-3-yl)-2-methylpropan-1-one O-carbamoyl oxime] | ≥ 1.0 gram
CC(C)C(=NOC(N)=O)c1c(C(C)C)nn2ccccc12 [compound 1014, 1-(2-isopropylpyrazolo[1,5-a]pyridin-3-yl)-2-methylpropan-1-one O-carbamoyl oxime] | ≥ 1.0 gram
CC(C)C(=NO)c1c(-c2ccc(F)cc2)nn2ccccc12 [compound 1019, 1-(2-(4-fluorophenyl)pyrazolo[1,5-a]pyridin-3-yl)-2-methylpropan-1-one oxime] | ≥ 1.0 gram
CC(C)c1nn2ccccc2c1-c1c[nH]c(=S)[nH]1 [compound 1085, 4-(2-isopropylpyrazolo[1,5-a]pyridin-3-yl)-1H-imidazole-2(3H)-thione] | ≥ 1.0 gram
CC(C)c1nn2ccccc2c1-c1ccncc1 [compound 1103, 2-Isopropyl-3-pyridin-4-yl-pyrazolo[1,5-a]pyridine] | ≥ 1.0 gram
CC(C)Nc1nccc(-c2c(C(C)C)nn3ccccc23)n1 [compound 1137, isopropyl-[4-(2-isopropylpyrazolo[1,5-a]pyridin-3-yl)-pyrimidin-2-yl]-amine] | ≥ 1.0 gram
